# The other results are listed elsewhere or left out. No stated cut-off is given here; in the data, active = 1.25 or more and inactive = the rest. Most values come without repeats; read them as rough.
# Tested on: Kcc2-LUC knock-in mouse primary cortical neurons (Kcc2 promoter reporter)
# Test: Kcc2 promoter-driven luciferase activity relative to vehicle control (fold of vehicle (ratio)); higher = stronger Kcc2 promoter activation (Kcc2 expression enhancer)
# Conditions: 100 nM; 48 h
row,SMILES,Kcc2 promoter-driven luciferase activity
1,CC1=CC(=O)c2ccccc2C1=O [Menadione],inactive: 0.6
2,COc1cc2c3cc1Oc1c(OC)c(OC)cc4c1C(Cc1ccc(O)c(c1)Oc1ccc(cc1)CC3N(C)CC2)CN(C)C4 (stereo not given),inactive: 0.79
3,"Cc1cc(O)c(/C=N/C(N)=S)c(=O)o1 [[(Z)-(6-Methyl-2,4-dioxopyran-3-ylidene)methyl]thiourea]",inactive: 1.19
4,O=[N+]([O-])c1ccc(-c2cn(-c3ccc(Cl)cc3)cn2)cc1 [1-(4-Chlorophenyl)-4-(4-nitrophenyl)imidazole],inactive: 1.04
5,COC(=O)NC1C(C)OC(OC2C/C=C(/C)C3C=CC4C(OC5CC(OC6CC(O)C(OC7CC(O)C(OC)C(C)O7)C(C)O6)C(O)C(C)O5)C(C)CC(C)C4C3(C)/C(O)=C3\C(=O)OC4(CC(C)C(CO)=CC4/C=C\2C)C3=O)CC1(C)[N+](=O)[O-] (stereo not given),inactive: 0.91
6,"O=C1C(Br)=C(Br)C(=O)c2ccccc21 [2,3-Dibromo-1,4-naphthoquinone]",inactive: 0.71
7,CN(C)CCOc1ccc(I)cc1Cc1ccccc1,inactive: 0.88
8,"COC1(O)C(=O)c2ccccc2OC1(OC)c1ccccc1 (stereo not given) [3-Hydroxy-2,3-dimethoxy-2-phenylchromen-4-one]",inactive: 0.92
9,O=C(C[n+]1ccc2ccccc2c1)c1ccc2ccc3ccccc3c2c1 [2-isoquinolin-2-ium-2-yl-1-phenanthren-3-ylethanone;iodide],inactive: 0.48
10,CCOC(=O)Cc1c(C)c2cc(C(=O)c3ccccc3)c(O)cc2oc1=O,inactive: 1.05

# An excerpt of these results, with bars between the fields.
row | SMILES | Kcc2 promoter-driven luciferase activity
1 | CC1=CC(=O)c2ccccc2C1=O [Menadione] | inactive: 0.6
10 | CCOC(=O)Cc1c(C)c2cc(C(=O)c3ccccc3)c(O)cc2oc1=O | inactive: 1.05
